Out of some 350,000 compounds screened, about 6,000 (1.7%) were called active. Inconclusive means that the source gave no clear call. Such entries were picked first, then a sample of the others. Cut-off read from the data, not from the text of the source: active = CPE inhibition above about 20% (passing the limit was not always enough); inconclusive = no clear call, values can overlap the other calls; tested in BHK-21 cells.
Assay: protection of cells from dengue 2 killing – plate reader, single concentration, primary screen (AID 651640);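 note: 0% = median of neutral control wells and 100% = median of positive control wells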
Details: DENV2-infected cells, cytopathic effect rescue, at 9.99 µM, stronger effect = higher value

Structure (SMILES) | CPE inhibition
COc1ccc(CN(C)C[C@H]2OCCCC[C@H](C)Oc3ccc(NS(=O)(=O)c4ccc(F)cc4)cc3C(=O)N([C@H](C)CO)C[C@H]2C)cc1 | active: 33.1%
COc1ccc(NC(=O)C[C@H]2CC[C@H]3[C@@H](COc4ccc(NC(=O)C5CC5)cc4C(=O)N3C)O2)cc1 | inactive: -3.93%
C#CCOCCOCCOCCNc1nc(N2CCN(C(=O)[C@H](CC(N)=O)n3cc(C(N)[C@H](C)CC)nn3)CC2)nc(N2CCN(C(=O)[C@H](CC(N)=O)n3cc(C(N)[C@@H](C)CC)nn3)CC2)n1 (stereo partly drawn) | active: 20.6%
C[C@H]1CN([C@@H](C)CO)C(=O)c2cc(NC(=O)c3ccncc3)ccc2O[C@H]1CN(C)Cc1ccc(Cl)c(Cl)c1 | inconclusive: 32.3%
O=C(C[C@@H]1CC[C@@H](NC(=O)CC2CC2)[C@@H](CO)O1)NCc1ccc(Cl)cc1 | inactive: -3.31%
CC(=O)c1cccc(-c2ccnc3c2CC(C(=O)Nc2ccccc2)O3)c1 (stereo not drawn) | inconclusive: 32.1%
C[C@H](CO)N1C[C@H](C)[C@H](CN(C)Cc2ccc(C(F)(F)F)cc2)Oc2ccc(NC(=O)Nc3ccccc3)cc2CC1=O | active: 25.3%
COc1ccc(S(=O)(=O)CC(=O)c2cc(C)c(O)c(C)c2)cc1 | inconclusive: 45.6%
CN(C)c1ccc(N=Nc2ccc(S(N)(=O)=O)cc2)cc1 | inconclusive: 40.6%
O=S(=O)(c1ccc(F)cc1)N1CC[C@@H]2[C@H]1c1cc(-c3ccc(F)cc3)ccc1N[C@@H]2CO | active: 86.4%
COc1ccc(NC(=O)N(C)C[C@@H]2Oc3ccc(NS(=O)(=O)c4ccc(OC)cc4)cc3CC(=O)N([C@@H](C)CO)C[C@H]2C)cc1 | inactive: 3.09%
COc1ccc2c3c([nH]c2c1)[C@@H](CO)N(Cc1ccc(F)cc1)CC31CCN(C)CC1 | inconclusive: 21%
CO[C@H]1CN(C)C(=O)c2cc(NC(=O)C3CCCCC3)ccc2OC[C@@H](C)N(Cc2cccnc2)C[C@@H]1C | inactive: -3.08%
C[C@@H]1CN([C@@H](C)CO)C(=O)c2cc(NC(=O)Nc3ccccc3)ccc2O[C@@H](C)CCCCO[C@H]1CN(C)S(=O)(=O)c1cccs1 | inconclusive: 31.9%
CCOC(=O)[C@]12CCCC=C1N(Cc1ccc3c(c1)OCO3)C(=O)[C@H](CC(=O)NCCCN1CCCC1=O)C2 | inconclusive: 51.7%
COc1cc(F)cc(-c2ccc3c(c2)c(-c2cccs2)c(-c2cc(OC)cc(OC)c2)n3C)c1 | active: 77.8%
COc1ccc(C(=O)O)cc1S(=O)(=O)N1CCN(c2ccccn2)CC1 | inconclusive: 25.8%
Cc1ccc(S(=O)(=O)Nc2cccc(C(=O)NCCCn3ccnc3)c2)cc1F | active: 54.3%
O=C(Cc1c[nH]c2ccccc12)NCc1ccco1 | inactive: 9.3%
O=C(CSC1CCc2ccccc21)NN=Cc1ccco1 (stereo not drawn) | inconclusive: 42.5%
COCC(=O)N/N=C\c1ccc(OC/C=C/c2ccccc2)c(OC)c1 | inconclusive: 30.3%
CO[C@@H]1CN(C)C(=O)c2ccc(NC(C)=O)cc2OC[C@@H](C)N(C(=O)CN2CCOCC2)C[C@@H]1C | active: 28.1%
CC(C)c1cn(CC[C@@H]2CC[C@H](NC(=O)C3CCOCC3)[C@@H](CO)O2)nn1 | active: 71.4%

Structure (SMILES) | CPE inhibition
C[C@H](NC(=O)c1[nH]cnc1C(=O)Nc1ccc(CNC(=O)OC(C)(C)C)cc1)C(=O)OCc1ccccc1 | inconclusive: 40.3%
C[C@@H]1CCCCO[C@@H](CN(C)C(=O)C2CCCCC2)[C@H](C)CN([C@H](C)CO)C(=O)c2cc(NC(=O)CCC(F)(F)F)ccc2O1 | active: 74.2%
O=C(C[C@H]1C[C@@H]2c3cc(NC(=O)Nc4ccccc4)ccc3O[C@@H]2[C@H](CO)O1)NC1CCCC1 | inactive: -4.32%
O=C(Nc1nc2ccccc2s1)c1c(F)cccc1Cl | inconclusive: 27.8%
Cc1ccc2cc(CCNC(=O)C3CCCCC3)c(=O)[nH]c2c1C | inconclusive: 54.5%
COc1ccc2c3c([nH]c2c1)[C@@H](CO)N(S(C)(=O)=O)CC31CCN(CC2CCCC2)CC1 | active: 53.8%
O=C(O)CC(CCc1ccccc1)OC1OC(CO)C(O)C(O)C1O (stereo not drawn) | inactive: -7.91%
Cc1noc(C)c1S(=O)(=O)Nc1ccc2c(c1)C(=O)N([C@@H](C)CO)C[C@@H](C)[C@@H](CN(C)C)OCCCC[C@@H](C)O2 | inconclusive: 34.6%
O=C(Nc1cc(F)ccc1F)N[C@H]1CC[C@H](CCn2cc(C3CC3)nn2)O[C@H]1CO | inactive: 1.38%
COc1ccc(C=O)c(OCc2cn(CC(=O)c3ccc(O)cc3)nn2)c1 | inconclusive: 21.4%
O=C(c1ccc(F)cc1)N1CC2(C1)[C@@H](c1ccccc1)[C@@H](CO)N2Cc1ccccn1 | inactive: -6%
C[C@H](CO)N1C[C@H](C)[C@H](CN(C)C(=O)Nc2cccc3ccccc23)Oc2ccc(NC(=O)Nc3ccc(C(F)(F)F)cc3)cc2CC1=O | inconclusive: 76.9%
Cc1ccc(-c2ccc3c(c2)O[C@H](CN(C)Cc2cccc(C(=O)O)c2)[C@@H](C)CN([C@@H](C)CO)S3(=O)=O)cc1 | inconclusive: 22.5%
CC(OC(=O)c1nc(Cl)ccc1Cl)C(=O)NCc1ccccc1 (stereo not drawn) | inconclusive: 24.5%
O=C(COc1ccccc1Cl)NCCNC(=O)c1ccccn1 | inconclusive: 44%
CC1CN(C2=CC(=O)CCC2)CC(C)O1 (stereo not drawn) | active: 21.2%
CCNC(=O)[C@@H]1[C@@H](CO)[C@@H]2Cn3c(ccc(-c4cccc(OC)c4)c3=O)[C@@H]2N1Cc1nccs1 | inconclusive: 21%
O=S(=O)(c1cccs1)N1CCCCN2[C@H](CO)[C@H](c3ccc(C4=CCCC4)cc3)[C@@H]2C1 | active: 46.2%
Cc1noc(C)c1NC(=O)Nc1ccc2c(c1)C(=O)N([C@H](C)CO)C[C@H](C)[C@H](CN(C)C(=O)c1ccccc1)OCCCC[C@H](C)O2 | active: 39.3%
COc1ccccc1S(=O)(=O)N1CC[C@H]2[C@H](CO)Nc3ccc(-c4ccccc4F)cc3[C@H]21 | active: 20.9%
CC(=O)Nc1ccc2c(c1)C(=O)N(C)[C@H]1CC[C@H](CC(=O)NCc3ccc(Cl)cc3)O[C@H]1CO2 | inconclusive: 31.5%
COc1ccccc1C#Cc1cnc2c(c1)C(=O)N([C@@H](C)CO)C[C@@H](C)[C@@H](CN(C)C(=O)CC1CC1)O2 | inconclusive: 27.4%
C[C@H]1CCCCO[C@H](CN(C)C(=O)Nc2ccc(C(F)(F)F)cc2)[C@@H](C)CN([C@@H](C)CO)C(=O)c2cc(NC(=O)Cc3ccccc3)ccc2O1 | inactive: 14.4%

A different layout for part of the listing above.
Structure (SMILES)	CPE inhibition
COc1ccccc1S(=O)(=O)N1CC[C@H]2[C@H](CO)Nc3ccc(-c4ccccc4F)cc3[C@H]21	active: 20.9%
CC(=O)Nc1ccc2c(c1)C(=O)N(C)[C@H]1CC[C@H](CC(=O)NCc3ccc(Cl)cc3)O[C@H]1CO2	inconclusive: 31.5%

The results go on:

Structure (SMILES) | CPE inhibition
Nc1[nH]c(C(=O)c2ccc(Br)cc2)c(-c2ccc(F)cc2)c1C(=O)NCCc1c[nH]c2ccccc12 | active: 26.5%
COc1ccc(S(=O)(=O)N2CCCCC2)cc1NC(=O)Cn1c(=O)cnc2ccccc21 | inconclusive: 25.5%
CCOc1ccc(-n2ccc(=O)c(C(=O)Nc3ccc(S(=O)(=O)N4CCOCC4)cc3)n2)cc1 | inconclusive: 26.3%
CCC(=O)N1[C@H](CO)[C@H](c2ccc(-c3ccc(F)cc3)cc2)[C@@H]1CNC(C)=O | inconclusive: -7.9%
Cc1ccc(NC(=O)c2cc([N+](=O)[O-])ccc2N2CCOCC2)cc1S(=O)(=O)N1CCOCC1 | inactive: 1.88%
COc1ccc2c3c(n(C)c2c1)[C@@H](CO)N(Cc1ccccc1)CC31CCN(S(=O)(=O)c2ccc(C)cc2)CC1 | inconclusive: 23.4%
CCOC(=O)N1CCN(CC(O)COc2ccc(-c3ccccc3)cc2)CC1 (stereo not drawn) | inactive: -2.2%
O=C(O)c1cccc(-c2ccc(/C=N/Nc3ccc([N+](=O)[O-])cc3)o2)c1 | inactive: 15.3%
CCN(CC)C(=O)Cn1cc(C(=O)C(=O)N2CCN(c3ccccc3)CC2)c2ccccc21 | inconclusive: 38.8%
COc1cc(C)c(S(=O)(=O)N2CCCC2)cc1C(C)C | inactive: 14.1%
C[C@@H]1CN([C@H](C)CO)S(=O)(=O)c2ccc(-c3cccc(C#N)c3)cc2O[C@@H]1CN(C)Cc1ccccn1 | inconclusive: 6.78%
COc1ccc(S(=O)(=O)N(C)C[C@@H]2Oc3ccc(NC(=O)C4CCCCC4)cc3CC(=O)N([C@@H](C)CO)C[C@@H]2C)cc1 | active: 28%
COc1cc2sc3ccc(C#Cc4ccccn4)cc3c(=O)c2cc1OC | active: 22.5%
NC(N)=NC(N)=Nc1ccc2ccccc2c1 | inactive: -4.3%
C[C@@H]1CN([C@@H](C)CO)C(=O)c2cccc(NC(=O)C3CC3)c2O[C@@H]1CN(C)C | inactive: 11.8%
CCOC(=O)[C@H]1[C@H]2COc3ccccc3[C@@H]2N2C(=O)[C@@H](CO)NC(=O)[C@@]12C | active: 28.9%
COc1ccc(S(=O)(=O)N(C)C[C@@H]2Oc3ccc(N(C)C)cc3CC(=O)N([C@H](C)CO)C[C@@H]2C)cc1 | active: 22.8%
C[C@H](CO)N1C[C@H](C)[C@H](CN(C)S(=O)(=O)c2ccc(Cl)cc2)OCCCC[C@H](C)Oc2ccc(NC(=O)NC3CCCCC3)cc2C1=O | active: 50.2%
Cc1cccc(S(=O)(=O)N2C[C@@H]3[C@H](c4ccccc42)[C@H](CO)N3C(=O)CC2CC2)c1 | inconclusive: 22.6%
CCCN(C)C[C@@H]1Oc2ncc(C#Cc3ccccc3OC)cc2C(=O)N([C@H](C)CO)C[C@@H]1C | inactive: 3.59%
COc1ccc(N2CCN(C(=O)C3CCCN(S(=O)(=O)c4cccc5cccnc45)C3)CC2)cc1 (stereo not drawn) | inconclusive: 30%
CN(CC(=O)Nc1ccccc1C(F)(F)F)C(=O)C1=COCCO1 | inconclusive: 41.8%

Quoted at random: 2 records from the list
Structure (SMILES) | CPE inhibition
CO[C@@H]1CN(C)C(=O)c2ccc(NC(C)=O)cc2OC[C@@H](C)N(C(=O)CN2CCOCC2)C[C@@H]1C | active: 28.1%
CC1CN(C2=CC(=O)CCC2)CC(C)O1 (stereo not drawn) | active: 21.2%

— PubChem BioAssay AID651640 (Broad Institute, 2012)
